Measurements reported in PubChem BioAssay AID1159584 (Peter MacCallum Cancer Centre, 2016)

- Aim: 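Genes that CDH1-null MCF10A cells selectively depend on to survive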 (primary screen)
- Cells: human MCF10A breast epithelial cells, parental and CDH1-null
- Reagent: siRNA against human genes
- Detection: 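Cell viability by CellTiter-Glo ATP luminescence, each line scaled to the mean of mock wells across plates, then CDH1-null over parental ratio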
- Direction: CDH1-null / parental viability ratio: higher = CDH1-null cells survive relatively better than parental; CDH1-null viability vs mock: higher = more viable CDH1-null cells
Shown is a random part of about 18,000 reagents. Further read-outs or replicates are left out here. Not given: the amount of reagent, the time to read-out.

target gene,CDH1-null / parental viability ratio,CDH1-null viability vs mock (fraction of mock)
MED13L,1.08,0.78
PDHA2,1.06,0.94
PKHD1L1,0.91,0.6
MLLT3,1.09,0.94
MYH9,0.91,0.7
SMOX,1.11,0.99
FMR1NB,0.86,0.37
WFDC8,0.98,0.52
MMP12,1.07,0.6
SHROOM2,1.08,0.79
BCL2A1,1.06,1.04
NME2,1.04,0.94
UNC93B1,1.02,0.54
VSTM2A,1.01,0.92
HSD17B6,0.9,0.8
CIB2,0.89,0.62
ZNF236,1.67,0.82
THAP5,1.22,0.93
PLG,1.21,0.92
GRIN2A,1.28,1.1
SLC26A5,0.88,0.64
RPIA,0.76,0.92
BLVRB,1.01,0.99
PCDHB15,0.89,0.64
DEFB103B,1.14,0.49
ACP1,1.17,0.84
PAK2,0.85,0.8
AMMECR1L,1.28,0.83
CD46,1.16,0.89
CHPF2,1.16,1
ADGRA1,1.3,0.92
NYNRIN,1.02,0.5
GGCT,1.18,0.93
PCDHA11,0.9,0.46
PPP1R3B,1.06,0.37
ETS1,0.88,0.72
BCL3,0.72,0.58
TSEN34,0.9,0.72
RUNDC3A,1.11,1.02
OR6C2,1,0.54
VPS33B,1.11,0.82
FAAH,0.86,0.76
DTNBP1,1.28,0.82
BMP6,1.03,1.23
PPM1D,0.98,0.55
ZFAT,1.24,0.97
EPHA6,1.06,0.53
ZIC3,1.19,0.51
NFIL3,0.93,0.69
ARFIP2,0.91,0.68
PHF23,0.97,0.92
RUFY3,0.86,0.82
STAC,0.9,0.52
MRPL23,1.38,0.72
ARID1B,0.9,0.54
TMEM132B,0.85,0.73
ABCB7,1.06,0.89
ID2,0.99,0.71
DNAJC15,0.96,0.77
HTN3,1.45,1
ZDHHC20,1.04,0.81
EXOSC4,0.85,0.66
C1QC,0.72,0.53
HSD3B1,0.87,0.69
KLHL32,0.71,0.5
NKAPL,1.28,1.05
CCDC43,0.87,0.82
LRPAP1,0.98,0.96
GLIS1,1.08,0.82
EHBP1,1.02,0.88
SAAL1,1.25,0.9
DUOXA2,0.76,0.52
PRR27,1.3,1.25
FKBP1A,0.99,0.79
CLEC11A,0.95,0.8
PRR4,0.97,0.64
SRRM1,0.92,0.65
ATP8B4,0.96,0.76
UBR2,1,0.97
PRTFDC1,1,1.04
CPNE1,0.85,0.66
ADGRF3,1.34,0.86
EIF5,1.07,0.86
LACRT,1.16,1.17
SRP19,1.05,0.92
GAD2,1.05,1.13
GNS,1.12,1.23

Part of the list above, reformatted:
| target gene | CDH1-null / parental viability ratio | CDH1-null viability vs mock (fraction of mock) |
| --- | --- | --- |
| MMP12 | 1.07 | 0.6 |
| SHROOM2 | 1.08 | 0.79 |
| BCL2A1 | 1.06 | 1.04 |
| NME2 | 1.04 | 0.94 |
| UNC93B1 | 1.02 | 0.54 |
| VSTM2A | 1.01 | 0.92 |
| HSD17B6 | 0.9 | 0.8 |
| CIB2 | 0.89 | 0.62 |
| ZNF236 | 1.67 | 0.82 |
| THAP5 | 1.22 | 0.93 |
| PLG | 1.21 | 0.92 |
| GRIN2A | 1.28 | 1.1 |
| SLC26A5 | 0.88 | 0.64 |
| RPIA | 0.76 | 0.92 |
